Experimental data: article PMC8837555, “CRISPR and biochemical screens identify MAZ as a cofactor in CTCF-mediated insulation at Hox clusters”
These are yes or no findings as the source states them, for the method shown. Binding seen in cells or lysates may run through a third protein. Some results given as binding are weak or reduced against the parent protein; the word gives no strength. Sequences can lack the tags named with a protein.

Columns and labels:
[1] = target: T1, FLAG-CTCF (CCCTC-binding factor, mouse cDNA, expressed in 293FT) (mouse) (UniProt Q61164); test: co-IP; FLAG affinity purification from nuclear extract (BA450 buffer: 20 mM HEPES, 450 mM NaCl, 5% glycerol, 0.2 mM EDTA) of transfected 293FT cells, FLAG peptide elution, western blot; 4 °C or on ice
T1 sequence: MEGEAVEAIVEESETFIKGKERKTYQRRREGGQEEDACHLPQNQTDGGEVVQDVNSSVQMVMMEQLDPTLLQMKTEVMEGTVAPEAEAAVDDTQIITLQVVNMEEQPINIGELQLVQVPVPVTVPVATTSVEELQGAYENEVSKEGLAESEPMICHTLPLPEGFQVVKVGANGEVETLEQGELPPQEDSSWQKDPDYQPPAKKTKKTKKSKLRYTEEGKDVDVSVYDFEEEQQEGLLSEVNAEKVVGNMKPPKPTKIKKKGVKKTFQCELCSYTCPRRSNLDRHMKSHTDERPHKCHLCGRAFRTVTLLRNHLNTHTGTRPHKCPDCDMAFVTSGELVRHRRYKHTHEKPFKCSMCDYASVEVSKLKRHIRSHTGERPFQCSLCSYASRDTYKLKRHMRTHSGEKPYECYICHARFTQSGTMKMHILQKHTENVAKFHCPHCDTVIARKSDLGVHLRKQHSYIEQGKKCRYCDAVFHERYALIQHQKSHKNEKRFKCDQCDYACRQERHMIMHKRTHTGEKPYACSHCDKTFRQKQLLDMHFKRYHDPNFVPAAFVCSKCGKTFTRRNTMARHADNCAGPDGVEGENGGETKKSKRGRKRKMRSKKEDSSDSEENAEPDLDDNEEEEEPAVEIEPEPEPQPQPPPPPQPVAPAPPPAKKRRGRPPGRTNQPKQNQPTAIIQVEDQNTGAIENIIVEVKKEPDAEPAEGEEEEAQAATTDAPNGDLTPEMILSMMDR

[2] = target: T2, FLAG-MAZ (Myc-associated zinc-finger protein, mouse cDNA) (mouse) (UniProt P56671); test: as above
T2 sequence: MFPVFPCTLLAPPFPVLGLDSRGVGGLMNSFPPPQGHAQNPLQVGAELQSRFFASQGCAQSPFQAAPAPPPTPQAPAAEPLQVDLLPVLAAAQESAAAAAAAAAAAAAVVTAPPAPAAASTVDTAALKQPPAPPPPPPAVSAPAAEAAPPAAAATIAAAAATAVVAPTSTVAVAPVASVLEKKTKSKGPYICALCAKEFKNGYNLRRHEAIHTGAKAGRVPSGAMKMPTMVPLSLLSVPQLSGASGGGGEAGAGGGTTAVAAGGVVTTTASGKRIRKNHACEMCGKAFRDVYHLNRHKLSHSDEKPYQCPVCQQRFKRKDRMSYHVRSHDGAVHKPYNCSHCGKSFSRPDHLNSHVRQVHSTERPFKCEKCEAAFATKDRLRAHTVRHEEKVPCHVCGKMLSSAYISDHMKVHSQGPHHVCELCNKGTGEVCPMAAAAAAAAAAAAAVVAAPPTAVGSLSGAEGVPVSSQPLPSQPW

B1: RAD21 (cohesin subunit) (protein, UniProt O60216 1-631)
chain: MFYAHFVLSKRGPLAKIWLAAHWDKKLTKAHVFECNLESSVESIISPKVKMALRTSGHLLLGVVRIYHRKAKYLLADCNEAFIKIKMAFRPGVVDLPEENREAAYNAITLPEEFHDFDQPLPDLDDIDVAQQFSLNQSRVEEITMREEVGNISILQENDFGDFGMDDREIMREGSAFEDDDMLVSTTTSNLLLESEQSTSNLNEKINHLEYEDQYKDDNFGEGNDGGILDDKLISNNDGGIFDDPPALSEAGVMLPEQPAHDDMDEDDNVSMGGPDSPDSVDPVEPMPTMTDQTTLVPNEEEAFALEPIDITVKETKAKRKRKLIVDSVKELDSKTIRAQLSDYSDIVTTLDLAPPTKKLMMWKETGGVEKLFSLPAQPLWNNRLLKLFTRCLTPLVPEDLRKRRKGGEADNLDEFLKEFENPEVPREDQQQQHQQRDVIDEPIIEEPSRLQESVMEASRTNIDESAMPPPPPQGVKRKAGQIDPEPVMPPQQVEQMEIPPVELPPEEPPNICQLIPELELLPEKEKEKEKEKEDDEEEEDEDASGGDQDQEERRWNKRTQQMLHGLQRALAKTGAESISLLELCRNTNRKQAAAKFYSFLVLKKQQAIELTQEEPYSDIIATPGPRFHII
binding [1]: binds
binding [2]: binds
